Experimental data: the supplement of paper PMC12823440, “Inhibitors supercharge kinase turnover through native proteolytic circuits” (Nature, 2025)
Counter-ions that a name gives are not always drawn. The list shows a part of the results. The calls rarely recur for the same compound in another form.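 Kinases, fused to nanoluciferase, were expressed in K562 cells; luminescence was measured every 4 h from 2 to 18 h as percent of control (DMSO = 100%, positive control = 0%). A time point is decreased if signal falls significantly (2 sigma). Hits were called by the authors by a rule that is not shown; the count of time points alone does not decide it.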

Chains of the proteins cited; added tags and fusions are not shown. Lines headed by an entry give the natural chain unless they say otherwise; changes in a name come on top.
UniProt Q9BUB5: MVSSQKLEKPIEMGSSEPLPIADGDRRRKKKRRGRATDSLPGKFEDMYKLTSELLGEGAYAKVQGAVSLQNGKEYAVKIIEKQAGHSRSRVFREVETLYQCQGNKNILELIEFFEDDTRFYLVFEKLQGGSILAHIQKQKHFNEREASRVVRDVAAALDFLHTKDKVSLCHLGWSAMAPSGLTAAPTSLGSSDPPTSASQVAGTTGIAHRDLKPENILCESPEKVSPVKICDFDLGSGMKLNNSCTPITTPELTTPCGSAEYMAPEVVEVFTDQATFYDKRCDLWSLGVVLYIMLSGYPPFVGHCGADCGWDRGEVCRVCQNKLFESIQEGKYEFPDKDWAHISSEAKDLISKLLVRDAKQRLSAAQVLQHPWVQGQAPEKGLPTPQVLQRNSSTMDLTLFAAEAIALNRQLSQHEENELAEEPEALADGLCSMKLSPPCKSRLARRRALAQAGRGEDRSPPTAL
UniProt Q16620, whole entry, looked up: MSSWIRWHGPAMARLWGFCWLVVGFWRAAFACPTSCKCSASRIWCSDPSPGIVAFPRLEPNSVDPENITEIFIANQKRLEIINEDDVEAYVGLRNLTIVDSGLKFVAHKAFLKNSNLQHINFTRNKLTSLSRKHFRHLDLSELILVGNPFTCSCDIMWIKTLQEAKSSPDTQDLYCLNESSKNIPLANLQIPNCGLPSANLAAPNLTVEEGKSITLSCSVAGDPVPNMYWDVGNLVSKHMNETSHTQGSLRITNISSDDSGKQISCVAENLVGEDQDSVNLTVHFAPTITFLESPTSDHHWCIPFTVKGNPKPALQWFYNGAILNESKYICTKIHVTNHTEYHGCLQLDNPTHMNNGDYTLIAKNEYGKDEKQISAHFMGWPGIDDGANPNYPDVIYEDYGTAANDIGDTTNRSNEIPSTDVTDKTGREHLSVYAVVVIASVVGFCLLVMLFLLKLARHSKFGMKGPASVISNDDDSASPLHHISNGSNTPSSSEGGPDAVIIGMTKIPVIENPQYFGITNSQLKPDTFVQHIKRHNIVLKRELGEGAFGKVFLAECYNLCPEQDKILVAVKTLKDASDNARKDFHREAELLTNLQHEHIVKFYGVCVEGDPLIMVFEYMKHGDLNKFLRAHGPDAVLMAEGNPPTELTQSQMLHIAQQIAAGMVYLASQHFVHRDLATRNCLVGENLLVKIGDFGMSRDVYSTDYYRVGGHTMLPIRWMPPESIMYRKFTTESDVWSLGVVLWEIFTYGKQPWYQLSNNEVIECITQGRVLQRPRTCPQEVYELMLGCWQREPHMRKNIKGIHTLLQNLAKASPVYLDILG
UniProt O96013: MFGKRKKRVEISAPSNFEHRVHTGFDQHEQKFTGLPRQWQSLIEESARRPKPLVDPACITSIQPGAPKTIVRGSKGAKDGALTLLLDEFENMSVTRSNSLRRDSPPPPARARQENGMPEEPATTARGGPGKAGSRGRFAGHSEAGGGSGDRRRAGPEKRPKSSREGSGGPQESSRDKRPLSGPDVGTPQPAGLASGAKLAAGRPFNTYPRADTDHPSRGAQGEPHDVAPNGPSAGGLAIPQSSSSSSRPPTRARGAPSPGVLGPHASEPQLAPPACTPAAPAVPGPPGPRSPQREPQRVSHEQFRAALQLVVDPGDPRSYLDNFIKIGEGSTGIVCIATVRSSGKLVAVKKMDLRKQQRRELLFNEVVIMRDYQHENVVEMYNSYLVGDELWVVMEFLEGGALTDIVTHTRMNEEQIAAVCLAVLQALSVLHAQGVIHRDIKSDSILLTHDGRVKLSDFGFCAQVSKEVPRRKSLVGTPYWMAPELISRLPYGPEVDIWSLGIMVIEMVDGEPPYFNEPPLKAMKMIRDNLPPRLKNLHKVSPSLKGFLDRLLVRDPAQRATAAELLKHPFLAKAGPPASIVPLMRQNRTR
UniProt Q96KB5: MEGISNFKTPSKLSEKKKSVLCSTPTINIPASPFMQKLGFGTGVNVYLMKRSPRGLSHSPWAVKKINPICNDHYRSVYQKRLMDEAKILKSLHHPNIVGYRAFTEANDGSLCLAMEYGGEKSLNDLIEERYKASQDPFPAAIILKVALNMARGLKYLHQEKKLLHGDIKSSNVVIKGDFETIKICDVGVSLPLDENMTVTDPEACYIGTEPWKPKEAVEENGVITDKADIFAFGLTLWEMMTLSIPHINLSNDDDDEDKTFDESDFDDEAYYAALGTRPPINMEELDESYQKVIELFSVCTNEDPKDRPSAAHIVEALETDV
UniProt P42356, whole entry, looked up: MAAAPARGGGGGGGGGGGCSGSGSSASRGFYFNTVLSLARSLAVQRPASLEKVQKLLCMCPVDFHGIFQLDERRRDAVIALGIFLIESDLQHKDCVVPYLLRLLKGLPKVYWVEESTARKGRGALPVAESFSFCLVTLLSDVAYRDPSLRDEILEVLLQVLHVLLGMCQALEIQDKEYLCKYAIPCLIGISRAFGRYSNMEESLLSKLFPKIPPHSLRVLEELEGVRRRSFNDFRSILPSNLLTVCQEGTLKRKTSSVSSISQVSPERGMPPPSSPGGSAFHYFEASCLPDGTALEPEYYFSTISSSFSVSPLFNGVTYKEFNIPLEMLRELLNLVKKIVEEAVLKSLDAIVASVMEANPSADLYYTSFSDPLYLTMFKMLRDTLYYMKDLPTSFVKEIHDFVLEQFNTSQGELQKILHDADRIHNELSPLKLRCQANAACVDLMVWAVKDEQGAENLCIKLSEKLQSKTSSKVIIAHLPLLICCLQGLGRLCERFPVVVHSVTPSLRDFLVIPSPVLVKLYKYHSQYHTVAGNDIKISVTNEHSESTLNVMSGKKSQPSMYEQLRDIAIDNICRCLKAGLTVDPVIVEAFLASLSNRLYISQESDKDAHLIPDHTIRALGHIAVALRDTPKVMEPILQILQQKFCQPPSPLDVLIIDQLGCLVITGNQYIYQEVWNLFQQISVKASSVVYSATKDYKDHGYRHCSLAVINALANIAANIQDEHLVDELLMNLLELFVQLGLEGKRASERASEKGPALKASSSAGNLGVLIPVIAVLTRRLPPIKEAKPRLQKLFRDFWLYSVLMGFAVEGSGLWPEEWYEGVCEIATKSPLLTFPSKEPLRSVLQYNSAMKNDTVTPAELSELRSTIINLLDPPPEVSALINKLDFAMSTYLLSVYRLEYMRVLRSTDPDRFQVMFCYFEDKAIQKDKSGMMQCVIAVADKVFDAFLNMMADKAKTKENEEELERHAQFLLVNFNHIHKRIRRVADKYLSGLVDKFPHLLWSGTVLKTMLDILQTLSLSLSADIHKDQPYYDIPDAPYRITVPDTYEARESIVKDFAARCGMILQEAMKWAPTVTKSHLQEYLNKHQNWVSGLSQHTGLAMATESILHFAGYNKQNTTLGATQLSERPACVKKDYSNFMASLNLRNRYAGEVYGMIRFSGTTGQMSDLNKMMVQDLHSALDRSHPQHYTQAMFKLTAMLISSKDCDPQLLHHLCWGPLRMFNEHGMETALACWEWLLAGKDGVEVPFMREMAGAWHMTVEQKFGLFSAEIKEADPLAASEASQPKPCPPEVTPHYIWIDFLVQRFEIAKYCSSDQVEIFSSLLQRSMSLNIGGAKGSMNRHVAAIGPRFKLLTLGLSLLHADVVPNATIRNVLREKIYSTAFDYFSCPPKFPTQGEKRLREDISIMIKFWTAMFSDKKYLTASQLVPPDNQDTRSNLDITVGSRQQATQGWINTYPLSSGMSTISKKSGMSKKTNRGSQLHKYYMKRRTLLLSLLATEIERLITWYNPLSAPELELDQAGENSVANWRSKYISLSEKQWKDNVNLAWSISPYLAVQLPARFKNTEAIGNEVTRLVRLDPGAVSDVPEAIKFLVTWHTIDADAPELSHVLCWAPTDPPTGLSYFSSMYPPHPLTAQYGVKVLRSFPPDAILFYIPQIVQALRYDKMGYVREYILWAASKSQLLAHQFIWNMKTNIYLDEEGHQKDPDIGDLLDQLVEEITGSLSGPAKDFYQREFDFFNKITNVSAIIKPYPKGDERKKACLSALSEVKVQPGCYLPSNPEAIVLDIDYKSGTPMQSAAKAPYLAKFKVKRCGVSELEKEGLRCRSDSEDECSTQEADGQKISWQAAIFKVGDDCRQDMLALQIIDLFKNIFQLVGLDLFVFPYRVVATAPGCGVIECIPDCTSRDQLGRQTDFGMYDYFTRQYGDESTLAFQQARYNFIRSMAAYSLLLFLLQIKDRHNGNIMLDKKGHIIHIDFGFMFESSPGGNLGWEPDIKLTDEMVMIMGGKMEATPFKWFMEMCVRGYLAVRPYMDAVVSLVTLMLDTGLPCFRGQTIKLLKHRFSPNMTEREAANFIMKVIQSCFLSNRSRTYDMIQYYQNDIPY
UniProt Q05397, whole entry, looked up: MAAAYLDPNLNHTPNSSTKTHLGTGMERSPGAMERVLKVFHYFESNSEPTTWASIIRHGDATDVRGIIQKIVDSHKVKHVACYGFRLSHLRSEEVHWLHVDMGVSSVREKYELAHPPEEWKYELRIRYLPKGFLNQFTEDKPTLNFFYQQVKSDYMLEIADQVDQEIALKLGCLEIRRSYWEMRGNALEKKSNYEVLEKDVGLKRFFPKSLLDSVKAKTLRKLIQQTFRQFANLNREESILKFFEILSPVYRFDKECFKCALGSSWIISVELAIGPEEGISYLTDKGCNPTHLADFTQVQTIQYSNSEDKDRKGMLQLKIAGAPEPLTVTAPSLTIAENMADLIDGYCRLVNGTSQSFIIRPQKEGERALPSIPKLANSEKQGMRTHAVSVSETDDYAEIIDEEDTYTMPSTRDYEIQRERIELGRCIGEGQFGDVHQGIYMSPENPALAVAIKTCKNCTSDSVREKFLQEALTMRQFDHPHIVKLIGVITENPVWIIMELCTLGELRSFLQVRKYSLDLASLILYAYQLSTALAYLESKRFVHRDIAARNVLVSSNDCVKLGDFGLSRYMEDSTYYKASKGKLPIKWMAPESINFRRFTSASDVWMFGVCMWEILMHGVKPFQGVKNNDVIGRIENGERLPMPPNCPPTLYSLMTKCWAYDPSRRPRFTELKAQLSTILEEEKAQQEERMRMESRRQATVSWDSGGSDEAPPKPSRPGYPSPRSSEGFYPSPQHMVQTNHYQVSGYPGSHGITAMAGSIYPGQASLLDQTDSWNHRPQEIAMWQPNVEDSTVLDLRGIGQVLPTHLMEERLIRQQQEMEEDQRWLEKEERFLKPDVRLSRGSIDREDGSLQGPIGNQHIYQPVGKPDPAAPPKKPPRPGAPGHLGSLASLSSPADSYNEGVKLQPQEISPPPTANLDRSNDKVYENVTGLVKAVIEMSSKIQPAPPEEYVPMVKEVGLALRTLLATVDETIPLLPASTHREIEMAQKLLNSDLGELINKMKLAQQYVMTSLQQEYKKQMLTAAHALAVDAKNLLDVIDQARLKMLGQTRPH
UniProt Q14289, whole entry, looked up: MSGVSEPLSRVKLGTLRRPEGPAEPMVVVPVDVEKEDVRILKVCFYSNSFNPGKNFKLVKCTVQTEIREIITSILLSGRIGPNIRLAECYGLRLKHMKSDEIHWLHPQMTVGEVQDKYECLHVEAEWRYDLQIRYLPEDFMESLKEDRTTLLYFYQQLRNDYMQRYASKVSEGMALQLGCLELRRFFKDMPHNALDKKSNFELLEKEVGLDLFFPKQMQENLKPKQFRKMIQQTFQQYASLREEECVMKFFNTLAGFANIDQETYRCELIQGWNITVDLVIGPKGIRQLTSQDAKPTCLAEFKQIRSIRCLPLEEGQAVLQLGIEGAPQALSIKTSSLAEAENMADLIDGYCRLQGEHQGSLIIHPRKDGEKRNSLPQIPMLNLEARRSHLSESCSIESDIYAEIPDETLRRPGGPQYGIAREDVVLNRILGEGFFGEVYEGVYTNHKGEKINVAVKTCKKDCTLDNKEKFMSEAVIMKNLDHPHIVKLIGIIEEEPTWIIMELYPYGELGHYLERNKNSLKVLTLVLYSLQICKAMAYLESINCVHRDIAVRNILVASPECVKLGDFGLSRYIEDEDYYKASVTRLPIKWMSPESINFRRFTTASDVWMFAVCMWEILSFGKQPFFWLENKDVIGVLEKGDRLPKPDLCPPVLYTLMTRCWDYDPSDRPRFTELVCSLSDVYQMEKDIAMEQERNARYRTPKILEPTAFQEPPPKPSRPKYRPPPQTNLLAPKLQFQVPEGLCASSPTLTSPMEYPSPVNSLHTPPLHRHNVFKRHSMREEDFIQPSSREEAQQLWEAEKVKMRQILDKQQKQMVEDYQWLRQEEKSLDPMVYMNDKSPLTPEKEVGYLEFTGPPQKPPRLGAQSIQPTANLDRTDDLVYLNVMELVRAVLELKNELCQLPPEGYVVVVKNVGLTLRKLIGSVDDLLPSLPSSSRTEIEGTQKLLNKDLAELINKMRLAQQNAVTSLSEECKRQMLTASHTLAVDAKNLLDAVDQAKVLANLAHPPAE

Key:
Assay in all cases: kinase-Nluc reporter destabilization hit call (1 = scored as downregulated) (binary); higher = compound decreases kinase abundance
Conditions in all cases: K562; 2-18 h
MAPK1 = MAPK1 (UniProt P28482)
MAPK4 = MAPK4 (UniProt P31152)
MAPKAPK2 = MAPKAPK2 (UniProt P49137)
MKNK1 = MKNK1 (UniProt Q9BUB5)
NTRK2 = NTRK2 (UniProt Q16620)
NTRK3 = NTRK3 (UniProt Q16288)
PAK4 = PAK4 (UniProt O96013)
PBK = PBK (UniProt Q96KB5)
PDGFRB = PDGFRB (UniProt P09619)
PDK1 = PDK1 (UniProt Q15118)
PDPK1 = PDPK1 (UniProt O15530)
PIK4CA = PIK4CA (UniProt P42356)
PIK4CB = PIK4CB (UniProt Q9UBF8)
PLK1 = PLK1 (UniProt P53350)
PRKAA1 = PRKAA1 (UniProt Q13131)
PRKCA = PRKCA (UniProt P17252)
PTK2 = PTK2 (UniProt Q05397)
PTK2B = PTK2B (UniProt Q14289)
RAF1 = RAF1 (UniProt P04049)
[1] = target: RAF1_S257L (clone: RAF1_mut) (UniProt P04049)

Measured: kinase-Nluc reporter destabilization hit call

Cn1cc(-c2c[nH]c3ncnc(N4CCOCC4)c23)cc1C#N (10 µM)
inactive: MAPK1 = 0 | MAPK4 = 0 | MAPKAPK2 = 0 | MKNK1 = 0 | NTRK2 = 0 | NTRK3 = 0 | PAK4 = 0 | PBK 0 | PDGFRB 0 | PDK1 = 0 | PDPK1 = 0 | PIK4CA 0 | PIK4CB 0 | PLK1 = 0 | PRKAA1 = 0 | PRKCA 0 | PTK2 = 0 | PTK2B 0 | RAF1 = 0 | [1] 0

O=C(CNc1cccc(Cl)c1)NC1CCCN(c2ncnc3[nH]ccc23)C1 (stereo not given) (10 µM)
inactive: MAPK1 = 0 | MAPK4 = 0 | MAPKAPK2 = 0 | MKNK1 = 0 | NTRK2 = 0 | NTRK3 = 0 | PAK4 = 0 | PBK 0 | PDGFRB 0 | PDK1 = 0 | PDPK1 = 0 | PIK4CA 0 | PIK4CB 0 | PLK1 = 0 | PRKAA1 = 0 | PRKCA 0 | PTK2 = 0 | PTK2B 0 | RAF1 = 0 | [1] 0

CN(c1ccc(NC(=O)Nc2ccc(OC(F)(F)F)cc2)cc1)c1ccnc(Nc2cccc(S(N)(=O)=O)c2)n1 (2.5 µM)
inactive: MAPK1 = 0 | MAPK4 = 0 | MAPKAPK2 = 0 | MKNK1 = 0 | NTRK2 = 0 | NTRK3 = 0 | PAK4 = 0 | PBK 0 | PDGFRB 0 | PDK1 = 0 | PDPK1 = 0 | PIK4CA 0 | PIK4CB 0 | PLK1 = 0 | PRKAA1 = 0 | PRKCA 0 | PTK2 = 0 | PTK2B 0 | RAF1 = 0 | [1] 0

C=CC(=O)N1C(=O)CC(c2ccc(F)cc2)Sc2ccccc21 (stereo not drawn) [GSK-3β inhibitor 3] (10 µM)
inactive: MAPK1 = 0 | MAPK4 = 0 | MAPKAPK2 = 0 | MKNK1 = 0 | NTRK2 = 0 | NTRK3 = 0 | PAK4 = 0 | PBK 0 | PDGFRB 0 | PDK1 = 0 | PDPK1 = 0 | PIK4CA 0 | PIK4CB 0 | PLK1 = 0 | PRKAA1 = 0 | PRKCA 0 | PTK2 = 0 | PTK2B 0 | RAF1 = 0 | [1] 0

CN1C(=O)[C@@H](NC(=O)c2n[nH]c(Cc3ccccc3)n2)COc2ccccc21 (10 µM)
inactive: MAPK1 = 0 | MAPK4 = 0 | MAPKAPK2 = 0 | MKNK1 = 0 | NTRK2 = 0 | NTRK3 = 0 | PAK4 = 0 | PBK 0 | PDGFRB 0 | PDK1 = 0 | PDPK1 = 0 | PIK4CA 0 | PIK4CB 0 | PLK1 = 0 | PRKAA1 = 0 | PRKCA 0 | PTK2 = 0 | PTK2B 0 | RAF1 = 0 | [1] 0

O=C(O)c1cc(N(Cc2ccccc2O)Cc2ccccc2O)ccc1O [Lavendustin B] (10 µM)
inactive: MAPK1 = 0 | MAPK4 = 0 | MAPKAPK2 = 0 | MKNK1 = 0 | NTRK2 = 0 | NTRK3 = 0 | PAK4 = 0 | PBK 0 | PDGFRB 0 | PDK1 = 0 | PDPK1 = 0 | PIK4CA 0 | PIK4CB 0 | PLK1 = 0 | PRKAA1 = 0 | PRKCA 0 | PTK2 = 0 | PTK2B 0 | RAF1 = 0 | [1] 0

N#Cc1c2nc3ccccc3nc2n2ccc(NC(=O)c3cccs3)cc12 (10 µM)
inactive: MAPK1 = 0 | MAPK4 = 0 | MAPKAPK2 = 0 | MKNK1 = 0 | NTRK2 = 0 | NTRK3 = 0 | PAK4 = 0 | PBK 0 | PDGFRB 0 | PDK1 = 0 | PDPK1 = 0 | PIK4CA 0 | PIK4CB 0 | PLK1 = 0 | PRKAA1 = 0 | PRKCA 0 | PTK2 = 0 | PTK2B 0 | RAF1 = 0 | [1] 0

Cc1ccc(C(=O)Nc2sc(Nc3ccccc3)nc2C(N)=O)cc1 (10 µM)
inactive: MAPK1 = 0 | MAPK4 = 0 | MAPKAPK2 = 0 | MKNK1 = 0 | NTRK2 = 0 | NTRK3 = 0 | PAK4 = 0 | PBK 0 | PDGFRB 0 | PDK1 = 0 | PDPK1 = 0 | PIK4CA 0 | PIK4CB 0 | PLK1 = 0 | PRKAA1 = 0 | PRKCA 0 | PTK2 = 0 | PTK2B 0 | RAF1 = 0 | [1] 0

O=[N+]([O-])c1ccc2c(c1)S(=O)(=O)C=C2 [Stattic] (2.5 µM)
inactive: MAPK1 = 0 | MAPK4 = 0 | MAPKAPK2 = 0 | MKNK1 = 0 | NTRK2 = 0 | NTRK3 = 0 | PAK4 = 0 | PBK 0 | PDGFRB 0 | PDK1 = 0 | PDPK1 = 0 | PIK4CA 0 | PIK4CB 0 | PLK1 = 0 | PRKAA1 = 0 | PRKCA 0 | PTK2 = 0 | PTK2B 0 | RAF1 = 0 | [1] 0

Cc1ccc(-c2csc3ncnc(SCCC(=O)O)c23)cc1 (10 µM)
inactive: MAPK1 = 0 | MAPK4 = 0 | MAPKAPK2 = 0 | MKNK1 = 0 | NTRK2 = 0 | NTRK3 = 0 | PAK4 = 0 | PBK 0 | PDGFRB 0 | PDK1 = 0 | PDPK1 = 0 | PIK4CA 0 | PIK4CB 0 | PLK1 = 0 | PRKAA1 = 0 | PRKCA 0 | PTK2 = 0 | PTK2B 0 | RAF1 = 0 | [1] 0

O=C(NC1CCOCC1)c1ccc(-c2cc(-c3c[nH]nc3-c3ccccn3)ccn2)cc1 (10 µM)
inactive: MAPK1 = 0 | MAPK4 = 0 | MAPKAPK2 = 0 | MKNK1 = 0 | NTRK2 = 0 | NTRK3 = 0 | PAK4 = 0 | PBK 0 | PDGFRB 0 | PDK1 = 0 | PDPK1 = 0 | PIK4CA 0 | PIK4CB 0 | PLK1 = 0 | PRKAA1 = 0 | PRKCA 0 | PTK2 = 0 | PTK2B 0 | RAF1 = 0 | [1] 0

CN1CCC(c2ccccc2CC(C)(C)Nc2nc(N3CCOCC3)nc(-n3c(C(F)F)nc4ccccc43)n2)CC1 [Zandelisib] (10 µM)
inactive: MAPK1 = 0 | MAPK4 = 0 | MAPKAPK2 = 0 | MKNK1 = 0 | NTRK2 = 0 | NTRK3 = 0 | PAK4 = 0 | PBK 0 | PDGFRB 0 | PDK1 = 0 | PDPK1 = 0 | PIK4CA 0 | PIK4CB 0 | PLK1 = 0 | PRKAA1 = 0 | PRKCA 0 | PTK2 = 0 | PTK2B 0 | RAF1 = 0 | [1] 0

CC(=O)c1c(C)c2cnc(Nc3ccc(N4CCN(C(=O)CNc5cccc6c5C(=O)N(C5CCC(=O)NC5=O)C6=O)CC4)cn3)nc2n(C2CCCC2)c1=O (stereo not given) (10 µM)
inactive: MAPK1 = 0 | MAPK4 = 0 | MAPKAPK2 = 0 | MKNK1 = 0 | NTRK2 = 0 | NTRK3 = 0 | PAK4 = 0 | PBK 0 | PDGFRB 0 | PDK1 = 0 | PDPK1 = 0 | PIK4CA 0 | PIK4CB 0 | PLK1 = 0 | PRKAA1 = 0 | PRKCA 0 | PTK2 = 0 | PTK2B 0 | RAF1 = 0 | [1] 0

CCn1c(=O)c(-c2cc[nH]n2)cc2c(C)nc(N)nc21 [Voxtalisib] (10 µM)
inactive: MAPK1 = 0 | MAPK4 = 0 | MAPKAPK2 = 0 | MKNK1 = 0 | NTRK2 = 0 | NTRK3 = 0 | PAK4 = 0 | PBK 0 | PDGFRB 0 | PDK1 = 0 | PDPK1 = 0 | PIK4CA 0 | PIK4CB 0 | PLK1 = 0 | PRKAA1 = 0 | PRKCA 0 | PTK2 = 0 | PTK2B 0 | RAF1 = 0 | [1] 0

Quoted at random: 2 compounds from above.
CN1C(=O)[C@@H](NC(=O)c2n[nH]c(Cc3ccccc3)n2)COc2ccccc21 (10 µM)
inactive: MAPK1 = 0 | MAPK4 = 0 | MAPKAPK2 = 0 | MKNK1 = 0 | NTRK2 = 0 | NTRK3 = 0 | PAK4 = 0 | PBK 0 | PDGFRB 0 | PDK1 = 0 | PDPK1 = 0 | PIK4CA 0 | PIK4CB 0 | PLK1 = 0 | PRKAA1 = 0 | PRKCA 0 | PTK2 = 0 | PTK2B 0 | RAF1 = 0 | [1] 0

CN1CCC(c2ccccc2CC(C)(C)Nc2nc(N3CCOCC3)nc(-n3c(C(F)F)nc4ccccc43)n2)CC1 [Zandelisib] (10 µM)
inactive: MAPK1 = 0 | MAPK4 = 0 | MAPKAPK2 = 0 | MKNK1 = 0 | NTRK2 = 0 | NTRK3 = 0 | PAK4 = 0 | PBK 0 | PDGFRB 0 | PDK1 = 0 | PDPK1 = 0 | PIK4CA 0 | PIK4CB 0 | PLK1 = 0 | PRKAA1 = 0 | PRKCA 0 | PTK2 = 0 | PTK2B 0 | RAF1 = 0 | [1] 0

More records.

CCc1cccc(CC)c1NC(=O)N1Cc2[nH]nc(NC(=O)c3ccc(N4CCN(C)CC4)cc3)c2C1 (2.5 µM)
inactive: MAPK1 = 0 | MAPK4 = 0 | MAPKAPK2 = 0 | MKNK1 = 0 | NTRK2 = 0 | NTRK3 = 0 | PAK4 = 0 | PBK 0 | PDGFRB 0 | PDK1 = 0 | PDPK1 = 0 | PIK4CA 0 | PIK4CB 0 | PLK1 = 0 | PRKAA1 = 0 | PRKCA 0 | PTK2 = 0 | PTK2B 0 | RAF1 = 0 | [1] 0

Cc1nc(-c2cnn(C)c2)nc2c1[nH]c1ncc(-c3ccc(N4CCN(C)CC4)cc3)cc12 [GNE 220 (hydrochloride)] (10 µM)
inactive: MAPK1 = 0 | MAPK4 = 0 | MAPKAPK2 = 0 | MKNK1 = 0 | NTRK2 = 0 | NTRK3 = 0 | PAK4 = 0 | PBK 0 | PDGFRB 0 | PDK1 = 0 | PDPK1 = 0 | PIK4CA 0 | PIK4CB 0 | PLK1 = 0 | PRKAA1 = 0 | PRKCA 0 | PTK2 = 0 | PTK2B 0 | RAF1 = 0 | [1] 0

CNc1nc(Nc2ccc(C(=O)N3CCOCC3)cc2OC)ncc1Cl (2.5 µM)
inactive: MAPK1 = 0 | MAPK4 = 0 | MAPKAPK2 = 0 | MKNK1 = 0 | NTRK2 = 0 | NTRK3 = 0 | PAK4 = 0 | PBK 0 | PDGFRB 0 | PDK1 = 0 | PDPK1 = 0 | PIK4CA 0 | PIK4CB 0 | PLK1 = 0 | PRKAA1 = 0 | PRKCA 0 | PTK2 = 0 | PTK2B 0 | RAF1 = 0 | [1] 0
